{"source": "PubChem BioAssay AID504444", "about": "(National Center for Advancing Translational Sciences (NCATS), 2011)", "note": "About 7,500 (2.1%) of roughly 360,000 compounds were called active. This list was built around the results that the source calls inconclusive (neither active nor inactive); the mix of calls is not that of the screen. Calls come from the whole dose curve; as a rule, active = well fitted inhibition curve with a large enough effect; inconclusive = small, poorly fitted or top-dose-only effect, or effect the other way; inactive = flat fitted curve, though single readings scatter. Potencies beside an inconclusive call are fits to weak or partial responses and may not hold up. Potency is the fitted concentration of half-maximal effect."}
{"assay": "Nrf2 qHTS screen for inhibitors; note: nearly all actives have a fitted effect of over 60% in size", "conditions": "A549 ARE-Fluc reporter, luciferase luminescence, 18-24 h; series mostly up to 46 µM", "method_in_brief": "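Reporter: ARE-Fluc in A549. Exposure: 18-24 h, 37 °C, 5% CO2, 5% FBS OPTI-MEM. Readouts: fluorescent cytotoxicity (CellTiter-Fluor), then luminescent Nrf2 signal after BugLite.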"}
{"compound": "O=c1c(S(=O)(=O)c2ccc(Cl)cc2)cn(Cc2ccc(F)cc2)c2ccc(F)cc12", "Potency": "inactive"}
{"compound": "COc1cccc(/C=N/NC(=S)Nc2cccc(C(=O)O)c2)c1", "Potency": "inconclusive: 20.6 µM [activator, single point]"}
{"compound": "O=[N+]([O-])c1cc(S(=O)(=O)N2CCCC2)ccc1N/N=C1/CCCc2ccccc21", "Potency": "inactive"}
{"compound": "COc1ccccc1-c1cnn2c(N3CCOCC3)cc(C)nc12", "Potency": "inconclusive: 5.8 µM [activator, partial curve, poor fit]"}
{"compound": "COc1ccccc1/C=N/OCc1cc(C(C)=O)ccc1OC", "Potency": "inconclusive: 3.26 µM [activator, single point]"}
{"compound": "Cc1cccc(-c2nc3c(c(SCC(=O)N4CCCC4)n2)COC(C)(C)C3)c1", "Potency": "inactive"}
{"compound": "O=C(CN1C(=O)NC2(CCCc3ccccc32)C1=O)N1CCN(c2cccc(C(F)(F)F)c2)CC1", "note": "(stereo not given)", "Potency": "inconclusive: 0.0046 µM [falling, full curve, poor fit]"}
{"compound": "COc1ccc(Oc2nc(C)nc3c2oc2ccccc23)cc1", "Potency": "inconclusive: 32.6 µM [falling, single point]"}
{"compound": "O=C(Cn1c(NCCO)nc2ccccc21)Nc1cccc(S(=O)(=O)N2CCCC2)c1", "Potency": "inconclusive: 29.1 µM [falling, single point]"}
{"compound": "COc1ccc(C2Nc3ccccc3C(=O)N2c2ccc(Cl)cc2)cc1COc1ccc(NC(C)=O)cc1", "note": "(stereo not given)", "Potency": "inconclusive: 4.61 µM [activator, partial curve]"}
{"compound": "Cc1cc(NC(=O)CSc2nc(CCC3CCCC3)nc3ccccc23)no1", "Potency": "inconclusive: 6.51 µM [falling, partial curve, poor fit]"}
{"compound": "Cc1ccc(N(CC(C)C)S(=O)(=O)c2nnc(NC(=O)c3cccs3)s2)cc1", "Potency": "inconclusive: 23.1 µM [activator, single point]"}
{"compound": "COc1cc(NC(=S)NC(=O)c2ccco2)ccc1NC(=O)C(C)C", "Potency": "inconclusive: 11.6 µM [activator, partial curve, poor fit]"}
{"compound": "COc1ccc2cc(-c3[nH]ncc3CN3CCCC3c3nonc3C)ccc2c1", "note": "(stereo not given)", "Potency": "inactive"}
{"compound": "CCn1c(CSc2nc3ccccc3[nH]2)nc2cc(C(=O)O)ccc21", "Potency": "inactive"}
{"compound": "CCc1nc2ccc(C(=O)NCCCN3CCN(c4ccc(F)cc4)CC3)cc2nc1CC", "Potency": "inconclusive: 13 µM [falling, partial curve, poor fit]"}
{"compound": "Fc1ccc(Nc2nc(Nc3ccc(F)cc3)nc(N3CCOCC3)n2)cc1", "Potency": "inactive"}
{"compound": "CN(CC(=O)Nc1c(Cl)cccc1Cl)C(=O)CCNS(=O)(=O)c1ccccc1C(F)(F)F", "Potency": "inconclusive: 16.4 µM [falling, partial curve, poor fit]"}
{"compound": "Cc1cccc(N2C(=O)CC(Sc3ccccc3C(=O)O)C2=O)c1", "note": "(stereo not given)", "Potency": "inactive"}
{"compound": "CCOc1ccccc1N1CCN(CC(=O)Nc2cc(C)on2)CC1", "Potency": "inconclusive: 29.1 µM [falling, single point]"}
{"compound": "Cn1cc(Cl)c(C(=O)NNC(=S)Nc2cccc(Cl)c2)n1", "Potency": "inconclusive: 9.2 µM [activator, partial curve]"}
{"compound": "C(=N\\Nc1nc2ccccc2[nH]1)/c1ccc2c(c1)OCO2", "Potency": "inconclusive: 29.1 µM [activator, single point]"}
{"compound": "CCN(CC)c1ccc(CNc2nc3ccccc3n2CCN2CCOCC2)cc1", "Potency": "inconclusive: 23.1 µM [falling, single point]"}
{"compound": "COc1ccc(C(=O)/C=C/Nc2cc(C)ccn2)cc1", "Potency": "inconclusive: 20.6 µM [activator, partial curve]"}
{"compound": "Cc1ccc(-c2ccnc3nc(Sc4ncc(C(F)(F)F)cc4Cl)nn23)cc1", "Potency": "inconclusive: 29.1 µM [falling, single point]"}
{"compound": "Cc1cccc(NS(=O)(=O)c2cccc(C(=O)NCC(c3ccc(F)cc3)N3CCOCC3)c2)c1", "note": "(stereo not given)", "Potency": "inconclusive: 25.9 µM [falling, single point]"}
{"compound": "O=C(Nc1ccccc1)N1CCN(c2ccc(C(F)(F)F)cn2)CC1", "Potency": "active: 6.51 µM"}
{"compound": "C=CCn1c(C)csc1=Nc1ccc(C(C)=O)cc1", "Potency": "inconclusive: 29.1 µM [activator, single point]"}
{"compound": "O=C(NC1CCCCCCC1)c1ccc2c(c1)OCO2", "Potency": "inconclusive: 2.59 µM [activator, partial curve]"}
{"compound": "Cc1ccc2c(c1)/C(=C/c1ccc(F)cc1)C(=O)N2", "Potency": "inconclusive: 23.1 µM [falling, partial curve, poor fit]"}
{"compound": "COc1ccc(C2C(CC(=O)O)=C(O)C(=O)N2c2ccccc2)cc1", "note": "(stereo not given)", "Potency": "inconclusive: 23.1 µM [activator, partial curve]"}
{"compound": "CN(C(=S)Nc1ccc(F)cc1)C1(c2ccccc2Cl)CCCCC1=O", "note": "(stereo not given)", "Potency": "inconclusive: 29.1 µM [falling, single point]"}
{"compound": "COc1ccc(N2C3=C(CC4=C2CCCC4=O)C(=O)CCC3)cc1", "Potency": "inconclusive: 29.1 µM [falling, single point]"}
{"compound": "O=c1c(-c2ccc(O)cc2)coc2cc(O)ccc12", "Potency": "inactive"}
{"compound": "COc1cc2ccccc2cc1C(=O)Nc1cccnc1", "Potency": "inconclusive: 6.31 µM [activator, single point]"}
{"compound": "COC(=O)CCC(C)C1CCC2C3CCC4CC(O)CCC4(C)C3CC(O)C12C", "note": "(stereo not given)", "Potency": "inconclusive: 29.1 µM [falling, partial curve, poor fit]"}
{"compound": "O=C(NC1CCN(Cc2ccccc2)CC1)C1CCN(S(=O)(=O)c2ccc(Cl)cc2)CC1", "Potency": "inconclusive: 20.6 µM [falling, single point]"}
{"compound": "COc1ccccc1C(=O)COC(=O)c1cnc(C)cn1", "Potency": "inactive"}
{"compound": "CC(C)(C)c1ccc(C(=O)N/C(=C\\c2cccs2)C(=O)NCc2ccco2)cc1", "Potency": "inconclusive: 29.1 µM [falling, single point]"}
{"compound": "O=C(CCCN1C(=O)/C(=C\\c2cccs2)SC1=S)Nc1ccccn1", "Potency": "inconclusive: 10.3 µM [activator, partial curve]"}
{"compound": "Cc1ccc([C@H]2C(C(=O)O)=C[C@@H](CC3CCCC3)N2S(=O)(=O)c2ccc(C)cc2)cc1", "Potency": "inconclusive: 20.6 µM [falling, partial curve, poor fit]"}
{"compound": "COc1cc(N/N=C/c2ccc(N(C)C)cc2)ncn1", "Potency": "inconclusive: 3.66 µM [activator, full curve]"}
{"compound": "Cc1ccc(C)c(NS(=O)(=O)c2ccc(-c3coc(C)n3)cc2)c1", "Potency": "inconclusive: 1.84 µM [falling, partial curve, poor fit]"}
{"compound": "O=C(CN1CCN(c2ccc(Cl)cc2)CC1)c1ccccc1", "Potency": "inactive"}
{"compound": "CN1CCN(S(=O)(=O)c2ccc(N3CCN(c4ccccc4O)CC3)c([N+](=O)[O-])c2)CC1", "Potency": "active: 14.6 µM"}
{"compound": "COc1ccc2[nH]c(=O)c(-c3noc(-c4ccccc4)n3)cc2c1", "Potency": "inconclusive: 6.51 µM [activator, single point]"}
{"compound": "COc1ccc(NC(=O)CN(C)C(=O)c2cc(-c3ccc(Cl)cc3)nc3ccccc23)cc1", "Potency": "inconclusive: 16.4 µM [falling, single point]"}
{"compound": "CCOc1ccc(N(CC)S(=O)(=O)N2CCCC(C(=O)NCCc3ccccc3OC)C2)cc1", "note": "(stereo not given)", "Potency": "inconclusive: 18.4 µM [falling, partial curve]"}
{"compound": "Cc1nn(CC2CC2)c(=O)n1-c1ccc(Oc2ccccc2)cc1", "Potency": "inconclusive: 29.1 µM [falling, single point]"}
{"compound": "CCOc1ccc(N(C)S(=O)(=O)c2cc(-c3cc(C)no3)ccc2C)cc1", "Potency": "active: 18.4 µM"}
{"compound": "CC(=O)c1ccc(-c2cccc(C3C4C=CCCC4(C)C(=O)N3Cc3ccccc3)c2)cc1", "note": "(stereo not given)", "Potency": "inconclusive: 29.1 µM [falling, single point]"}
{"compound": "Cc1cccc(Oc2coc3cc(OCC(=O)NC4CCCCC4)ccc3c2=O)c1", "Potency": "inconclusive: 25.9 µM [falling, single point]"}
{"compound": "C=CCn1c(N)c(C(=O)Nc2ccc(C)c(C)c2)c2nc3ccccc3nc21", "Potency": "inconclusive: 11.6 µM [falling, partial curve]"}
{"compound": "COc1ccc(N2CCN(c3ccnc4cc(Cl)ccc34)CC2)cc1", "Potency": "inconclusive: 18.4 µM [falling, partial curve, poor fit]"}
{"compound": "Oc1ccc(CN2CCC(Cc3ccccc3)CC2)c2cccnc12", "Potency": "inconclusive: 10.3 µM [activator, partial curve]"}
{"compound": "Cc1ccc(NC(=O)Cc2nc(-c3c[nH]c(C(=O)N4CCCC4)c3)cs2)c(C)c1", "Potency": "active: 20.6 µM"}
{"compound": "O=C1CCc2cc(S(=O)(=O)Nc3cccc(-c4ccccc4)c3)ccc2N1", "Potency": "inconclusive: 23.1 µM [falling, single point]"}
{"compound": "Cc1ccc(Nc2nc(N)nc(-c3oc4ccccc4c3C)n2)cc1", "Potency": "inconclusive: 1.46 µM [activator, full curve]"}
{"compound": "CC(=O)Nc1ccc(Oc2cc(NC(C)=O)cc([N+](=O)[O-])c2)cc1", "Potency": "inconclusive: 11.6 µM [falling, partial curve, poor fit]"}
{"compound": "Cc1ccc(S(=O)(=O)Cn2nnnc2CN2CCCC3(CCCCC3)C2)cc1", "Potency": "inconclusive: 18.4 µM [falling, single point]"}
{"compound": "Cc1cccc(NC(=O)c2ccc3c(=O)n4c(nc3c2)CCCCC4)n1", "Potency": "inconclusive: 0.517 µM [activator, full curve, poor fit]"}
{"compound": "COCCC(=O)N1CCC(C(=O)Nc2ccc(Oc3ccccc3)nc2)CC1", "Potency": "inconclusive: 29.1 µM [activator, single point]"}
{"compound": "CC(=O)Nc1cc(C(=O)N2CCc3ccccc3C2)ccc1Sc1ccc(C)cc1", "Potency": "inconclusive: 29.1 µM [falling, single point]"}
{"compound": "O=C1C(C=NCCCN2CCOCC2)=C(O)c2ccccc21", "Potency": "inactive"}
{"compound": "CC1CCN(S(=O)(=O)c2nnc(NC(=O)c3cccc(F)c3)s2)CC1", "Potency": "inconclusive: 5.8 µM [activator, partial curve]"}
